The values that follow come from ChEMBL document CHEMBL1144842, “Design and campaign synthesis of piperidine- and thiazole-based histone deacetylase inhibitors” (Bioorg Med Chem Lett, 2008).

Chains of the proteins cited; added tags and fusions are not shown.
UniProt P08684, whole entry: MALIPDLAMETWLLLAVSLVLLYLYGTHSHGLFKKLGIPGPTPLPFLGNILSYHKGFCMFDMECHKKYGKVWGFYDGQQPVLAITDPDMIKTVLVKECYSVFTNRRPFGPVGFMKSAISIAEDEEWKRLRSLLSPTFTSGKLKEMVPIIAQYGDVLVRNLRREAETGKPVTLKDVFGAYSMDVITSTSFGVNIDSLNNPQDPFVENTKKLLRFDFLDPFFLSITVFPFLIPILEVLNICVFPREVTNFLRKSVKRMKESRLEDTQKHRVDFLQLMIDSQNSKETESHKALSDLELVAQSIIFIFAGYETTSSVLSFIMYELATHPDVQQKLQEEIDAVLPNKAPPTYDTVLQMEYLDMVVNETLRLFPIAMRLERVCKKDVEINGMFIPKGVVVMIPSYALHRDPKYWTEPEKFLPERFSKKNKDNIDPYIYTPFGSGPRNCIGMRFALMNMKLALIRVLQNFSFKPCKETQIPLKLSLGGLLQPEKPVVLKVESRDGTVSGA
UniProt P10635, whole entry: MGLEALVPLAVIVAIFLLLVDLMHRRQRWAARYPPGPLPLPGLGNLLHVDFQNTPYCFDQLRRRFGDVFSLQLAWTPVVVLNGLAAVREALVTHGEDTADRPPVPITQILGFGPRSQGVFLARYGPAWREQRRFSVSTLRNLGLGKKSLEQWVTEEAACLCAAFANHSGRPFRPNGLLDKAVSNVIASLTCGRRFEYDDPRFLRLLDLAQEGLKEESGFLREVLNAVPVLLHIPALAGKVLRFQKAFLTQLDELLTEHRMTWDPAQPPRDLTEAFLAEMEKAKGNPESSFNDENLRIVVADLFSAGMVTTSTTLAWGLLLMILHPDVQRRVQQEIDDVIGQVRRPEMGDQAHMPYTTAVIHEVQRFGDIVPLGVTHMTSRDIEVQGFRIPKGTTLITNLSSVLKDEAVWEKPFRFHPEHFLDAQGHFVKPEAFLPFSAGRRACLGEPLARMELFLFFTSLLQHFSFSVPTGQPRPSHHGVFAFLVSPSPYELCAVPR
UniProt P11712, whole entry: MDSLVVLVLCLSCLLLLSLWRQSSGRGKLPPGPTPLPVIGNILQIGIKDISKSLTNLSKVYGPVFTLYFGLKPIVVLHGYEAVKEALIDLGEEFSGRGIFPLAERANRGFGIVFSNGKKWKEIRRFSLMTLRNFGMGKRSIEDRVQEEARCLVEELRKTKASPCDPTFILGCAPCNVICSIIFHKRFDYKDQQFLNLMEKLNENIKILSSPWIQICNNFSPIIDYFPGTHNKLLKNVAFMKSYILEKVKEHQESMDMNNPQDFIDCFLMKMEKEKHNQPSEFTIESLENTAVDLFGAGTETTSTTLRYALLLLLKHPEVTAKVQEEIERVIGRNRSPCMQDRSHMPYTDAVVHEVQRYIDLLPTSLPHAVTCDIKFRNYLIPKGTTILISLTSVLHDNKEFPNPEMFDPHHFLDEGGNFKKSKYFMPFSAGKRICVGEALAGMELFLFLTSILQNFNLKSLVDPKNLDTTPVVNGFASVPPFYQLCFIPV
UniProt P33261, whole entry: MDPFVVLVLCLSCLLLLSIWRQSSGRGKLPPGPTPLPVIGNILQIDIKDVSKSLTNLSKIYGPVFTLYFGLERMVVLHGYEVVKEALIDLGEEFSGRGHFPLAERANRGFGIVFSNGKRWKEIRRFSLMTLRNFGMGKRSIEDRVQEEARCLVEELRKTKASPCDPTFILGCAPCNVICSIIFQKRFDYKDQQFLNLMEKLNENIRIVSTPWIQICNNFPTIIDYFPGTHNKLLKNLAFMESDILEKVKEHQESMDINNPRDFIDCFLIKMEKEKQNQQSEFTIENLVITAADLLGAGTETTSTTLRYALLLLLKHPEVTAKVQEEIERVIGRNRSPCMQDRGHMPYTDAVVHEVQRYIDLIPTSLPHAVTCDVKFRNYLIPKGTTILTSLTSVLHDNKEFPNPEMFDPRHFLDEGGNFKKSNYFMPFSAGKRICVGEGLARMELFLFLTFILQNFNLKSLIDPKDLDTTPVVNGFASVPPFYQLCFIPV

Data set [1] can be described thus: Lipophilicity, log D of the compound. Particulars: octanol/water.
The next data set addresses Cytochrome P450 3A4 (Homo sapiens, UniProt P08684).
Another data set has as its target Cytochrome P450 2D6 (Homo sapiens, UniProt P10635).
The target in a further data set is Cytochrome P450 2C9 (Homo sapiens, UniProt P11712).
A further data set concerns the target Cytochrome P450 2C19 (Homo sapiens, UniProt P33261).

Usually logD stands for the decadic logarithm of the distribution of all forms, ionised or not, between an organic phase and buffer at a given pH. A higher logD goes with a more lipophilic compound. The term IC50 denotes the concentration needed to halve the response being measured. Higher therefore signals weaker potency. The compound `CCNC(=O)c1ccc(CN2CCC(c3ccc(C(=O)Nc4ccccc4N)cc3)CC2)cc1` gave a logD in data set [1] of 2.28. The IC50 against Cytochrome P450 3A4, against Cytochrome P450 2D6, against Cytochrome P450 2C9 and against Cytochrome P450 2C19 was above 10 µM each time.
